Patent US10064926B2, “Peptides and combination of peptides for use in immunotherapy against hepatocellular carcinoma (HCC) and other cancers” (Immatics biotechnologies GmbH, priority 2014, dated 2018)
For part of these data: For expression read-outs the peptide stands for its source gene, whose mRNA was measured; the gene is not named for every peptide.

How the values were obtained:
[1] = test system: primary HCC tissue samples; assay: Identification and label-free LC-MS relative quantitation of HLA-presented peptides (presentation profiles/scores), HCC versus normal tissues; set-up: species or system human; key to PeptidePresentation (presentation score): very highly over-presented on tumors compared to a panel of normal tissues (+++); highly over-presented on tumors compared to a panel of normal tissues (++); over-presented on tumors compared to a panel of normal tissues (+); conditions: for PeptidePresentation (presentation score): HCC tumors compared to a panel of normal tissues
[2] = test system: source genes of the peptides in HCC and normal tissues; assay: mRNA expression profiling of source genes by Affymetrix microarray (expression scores); set-up: species or system human; key: very highly overexpressed in tumors compared to a panel of normal tissues (+++); highly overexpressed in tumors compared to a panel of normal tissues (++); overexpressed in tumors compared to a panel of normal tissues (+); conditions: source gene mRNA in tumors compared to a panel of normal tissues
[3] = test system: tumor samples of other tumor types; assay: Over-presentation of peptides on additional tumor types versus normal tissues (LC-MS); set-up: species or system human; conditions: for Additional Entities (additional tumor types on which the peptide was found over-presented) / Other relevant organs/diseases (additional tumor types on which the peptide was found over-presented): over-presentation on more than 5% of the measured tumor samples, or presentation on more than 5% with ratio of geometric means tumor vs normal tissues larger than 3
[4] = FIG. 1, only samples on which the peptide was presented

Row | Substance | PeptidePresentation (presentation score) [1] | Gene Expression (expression score) [2] | also measured
1 | 25: peptide found in APOB (gene looked up) (SLDGKAALTEL; listed as Homo sapiens) [compound 25] | +++ | +++ | 
2 | 5: peptide found in APOB (gene looked up) (ALVEQGFTV; listed as Homo sapiens) [compound 5] | +++ | +++ | 
3 | 183: peptide found in AKR1C4 (gene looked up) (YLYNNEEQVGL; listed as Homo sapiens) [compound 183] |  | +++ | 
4 | 61: peptide found in APOB (gene looked up) (KIADFELPTI; listed as Homo sapiens) [compound 61] | +++ | +++ | 
5 | 49: peptide found in APOB (gene looked up) (FLYPEKDEPT; listed as Homo sapiens) [compound 49] | +++ | +++ | 
6 | 286: peptide found in MIA3 (gene looked up) (KVLDKVFRA; listed as Homo sapiens) [compound 286] | + | + | 
7 | 87: peptide found in PAH (gene looked up) (RLFEENDVNL; listed as Homo sapiens) [compound 87] |  | +++ | 
8 | 132: peptide found in CYP27A1 (gene looked up) (ALHEEVVGV; listed as Homo sapiens) [compound 132] | + | ++ | 
9 | 149: peptide found in ARG1 (gene looked up) (GLLSGLDIMEV; listed as Homo sapiens) [compound 149] |  | +++ | Additional Entities (additional tumor types on which the peptide was found over-presented) [3]: SCLC
10 | 105: peptide found in PON2 (gene looked up) (SVYDGKLLI; listed as Homo sapiens) [compound 105] |  | + | 
11 | 100: peptide found in CRP (gene looked up) (SLVGDIGNVNM; listed as Homo sapiens) [compound 100] |  | +++ | 
12 | 50: peptide found in APOB (gene looked up) (FTIPKLYQL; listed as Homo sapiens) [compound 50] |  | +++ | 
13 | 182: peptide found in AKR1C4 (gene looked up) (YLLHFPMAL; listed as Homo sapiens) [compound 182] |  | +++ | 
14 | 158: peptide found in FMO5 (gene looked up) (RIISGLVKV; listed as Homo sapiens) [compound 158] |  | ++ | 
15 | 259: peptide found in CPSF1 (gene looked up) (TLITDGMRSV; listed as Homo sapiens) [compound 259] |  | + | Additional Entities (additional tumor types on which the peptide was found over-presented) [3]: RCC, CRC, OC, Esophageal Cancer, Urinary bladder cancer, Gallbladder Cancer, Bile Duct Cancer, PC; Other relevant organs/diseases (additional tumor types on which the peptide was found over-presented) [3]: Brain
16 | 106: peptide found in ABCB1 (gene looked up) (TLAAIIHGA; listed as Homo sapiens) [compound 106] |  | ++ | 
17 | 141: peptide found in GPR107 (gene looked up) (AMGEKSFSV; listed as Homo sapiens) [compound 141] |  | + | Additional Entities (additional tumor types on which the peptide was found over-presented) [3]: Melanoma; Other relevant organs/diseases (additional tumor types on which the peptide was found over-presented) [3]: Brain
18 | 215: peptide found in GGH (gene looked up) (IYTGNISSF; listed as Homo sapiens) [compound 215] |  | +++ | 
19 | 175: peptide found in GRB14 (gene looked up) (TLFEHLPHI; listed as Homo sapiens) [compound 175] |  | ++ | 
20 | 160: peptide found in CFH (gene looked up) (RLLAKIICL; listed as Homo sapiens) [compound 160] |  | +++ | 
21 | 41: peptide found in F9 (gene looked up) (ALLELDEPLVL; listed as Homo sapiens) [compound 41] |  | +++ | Other relevant organs/diseases (additional tumor types on which the peptide was found over-presented) [3]: Pancreas
22 | 13: peptide found in HSD11B1 (gene looked up) (GLIDTETAMKAV; listed as Homo sapiens) [compound 13] |  | +++ | 
23 | 73: peptide found in ABCB11 (gene looked up) (KLTLVIISV; listed as Homo sapiens) [compound 73] |  | +++ | 
24 | 156 (LLFPHPVNQV; listed as Homo sapiens) [compound 156] |  |  | over-presentation in HCC compared with normal tissues ([1]; FIG. 1 presentation profiles): over-presentation; number of cancer tissues on which the peptide was presented [3, 4]: 34; number of cell-lines on which the peptide was presented [3, 4]: 7; number of normal tissues on which the peptide was presented [3, 4]: 1; number of primary cultures on which the peptide was presented ([3]; FIG. 1K): 2; Additional Entities (additional tumor types on which the peptide was found over-presented) [3]: NSCLC, SCLC, OC, Esophageal Cancer, Urinary bladder cancer
25 | 234 (YLEPYLKEV; listed as Homo sapiens) [compound 234] | + |  | Additional Entities (additional tumor types on which the peptide was found over-presented) [3]: NSCLC, SCLC, BRCA, Melanoma, OC, Esophageal Cancer, Urinary bladder cancer, Uterine Cancer, Gallbladder Cancer, Bile Duct Cancer, AML, NHL, PC; Other relevant organs/diseases (additional tumor types on which the peptide was found over-presented) [3]: Kidney, Brain, Colon, Rectum
26 | 110: peptide found in CRP (gene looked up) (TVGGSEILFEV; listed as Homo sapiens) [compound 110] |  | +++ | Additional Entities (additional tumor types on which the peptide was found over-presented) [3]: SCLC, Gallbladder Cancer, Bile Duct Cancer
27 | 121 (YLITGNLEKL; listed as Homo sapiens) [compound 121] | + |  | Additional Entities (additional tumor types on which the peptide was found over-presented) [3]: NSCLC, CLL, BRCA, Melanoma, OC, Esophageal Cancer, Urinary bladder cancer, Uterine Cancer, Gallbladder Cancer, Bile Duct Cancer, NHL, PC; Other relevant organs/diseases (additional tumor types on which the peptide was found over-presented) [3]: Kidney, Colon, Rectum, Pancreas
28 | 185 (ALFPALRPGGFQA; listed as Homo sapiens) [compound 185] | ++ |  | Additional Entities (additional tumor types on which the peptide was found over-presented) [3]: Gallbladder Cancer, Bile Duct Cancer
